From US6566077B1 (Tecnogen S.C.p.A., priority 1995, dated 2003)

Test: general procedure: Fmoc solid-phase peptide synthesis; acid-labile chlorotrityl resin prederivatized with Fmoc-glycine (Novabiochem Cat No. 04-12-2800); HOBt/DCC
Settings: whole synthesis, scale of the general procedure 0.1 mmole; for crude HPLC purity: RP-HPLC

Substance	crude HPLC purity [%]	crude yield [%]
(H-D-Arg-D-Thr-D-Tyr-)4-Lys2-Lys-GlyOH	97	75
(H-D-Tyr-D-Thr-D-Arg-)4-Lys2-Lys-Gly-OH	97	81
(H-L-Tyr-L-Thr-L-Arg-)4-Lys2-Lys-Gly-OH	96	79
